Test results: patent WO2016071355A1
These are yes or no findings as the source states them, for the method shown. Some binding calls cover weakened binding; strength is not graded here.

By UniProt entry, the sequences of proteins in these tests, tags left out. Where a name states a change or a piece, a line headed by the entry shows the natural chain unless it says otherwise.
UniProt P28907: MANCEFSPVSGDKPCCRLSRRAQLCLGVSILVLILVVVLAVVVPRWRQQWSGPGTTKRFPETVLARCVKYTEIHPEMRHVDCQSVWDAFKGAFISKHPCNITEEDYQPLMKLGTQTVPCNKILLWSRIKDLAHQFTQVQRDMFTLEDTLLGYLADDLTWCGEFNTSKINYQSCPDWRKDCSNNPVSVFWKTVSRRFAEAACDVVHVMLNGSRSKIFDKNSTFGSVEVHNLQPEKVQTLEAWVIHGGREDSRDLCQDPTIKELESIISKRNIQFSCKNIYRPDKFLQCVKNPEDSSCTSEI
UniProt Q5VAN0: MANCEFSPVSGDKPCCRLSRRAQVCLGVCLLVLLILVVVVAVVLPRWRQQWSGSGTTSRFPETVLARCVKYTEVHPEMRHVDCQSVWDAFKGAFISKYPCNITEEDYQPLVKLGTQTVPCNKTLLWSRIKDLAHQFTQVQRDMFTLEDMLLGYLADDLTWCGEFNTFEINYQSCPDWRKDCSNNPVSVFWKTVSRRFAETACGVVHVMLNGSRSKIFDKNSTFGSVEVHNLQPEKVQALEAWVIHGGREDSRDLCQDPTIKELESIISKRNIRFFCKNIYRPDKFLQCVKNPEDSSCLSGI

How the values were obtained:
[1] = target: soluble extracellular region of human CD38 fused to a 6-His-tag (human) (UniProt P28907); test: SPR, antibody immobilized, human CD38 extracellular domain injected as control
[2] = target: soluble extracellular region of cynomolgus monkey CD38 antigen fused to a 6-His-tag (cynomolgus monkey) (UniProt Q5VAN0); test: SPR

B1: humanized 9G7 antibody (best-fit version) of Example 10 (antibody, human IgG1, kappa, V domains shown)
VH: QVTLKESGPTLVKPTQTLTLTCTFSGLSLSTSGKGVGWIRQPPGKALEWLAHIWWDDDKRYNPALKSRLTITKDTSKNQVVLTMTNMDPVDTATYYCARIELGRSYVMDYWGQGTLVTVSS
VL: DIQMTQSPSSLSASVGDRVTITCQASQDVITSVAWFQQKPGKAPKLLIYSASYRYTGVPSRFSGSGSGTDFTFTISSLQPEDIATYYCQQHYTIPLTFGQGTKLEIKR
binding [1]: binds | binding [2]: binds
